Assay results reported in patent US20070111258A1, “Compositions and methods for modulating the acute phase response” (priority 2005, published 2007).
Some results were stated once for a whole list of compounds, not compound by compound.

System: BiP, CHOP, EDEM, spliced XBP1, SAP and CRP mRNAs
Test: UPR and APR mRNA induction in mouse liver after injection (quantitative real-time RT-PCR)
Type: in vivo
Conditions: wild-type mice; 24 hours after i.p. injection; IL6 25 ng/gram, IL1β 25 ng/gram, LPS 3 μg/gram

B1: interleukin-6 (protein, UniProt P08505 25-211, looked up)
Interleukin-6: FPTSQVRRGDFTEDTTPNRPVYTTSQVGGLITHVLWEIVEMRKELCNGNSDCMNNDDALAENNLKLPEIQRNDGCYQTGYNQEICLLKISSGLLEYHSYLEYMKNNLKDNKKDKARVLQRDTETLIHIFNQEVKDLHKIVLPTPISNALLTDKLESQKEWLRTKTIQFILKSLEEFLKVTLRSTRQT
notes: pro-inflammatory cytokine; recombinant murine IL6 in vivo
- increase of levels of mRNA encoding ER chaperones GRP78/BiP and GADD153/CHOP in the liver: 4- to 7 fold

B2: IL1β: pro-inflammatory cytokine; recombinant murine IL1β in vivo (protein, UniProt P10749 118-269, looked up)
Interleukin-1 beta: VPIRQLHYRLRDEQQKSLVLSDPYELKALHLNGQNINQQVIFSMSFVQGEPSNDKIPVALGLKGKNLYLSCVMKDGTPTLQLESVDPKQYPKKKMEKRFVFNKIEVKSKVEFESAEFPNWYISTSQAEHKPVFLGNNSGQDIIDFTMESVSS
- increase of levels of mRNA encoding ER chaperones GRP78/BiP and GADD153/CHOP in the liver: 4- to 7 fold
